Experimental data reported in patent EP0682022B1, “Condensation products of melamine, benzotriazoles and aldehydes” (Ciba Specialty Chemicals Holding Inc., priority 1994, dated 1995).

Assay: Copper corrosion in water (weight loss of copper strip)
Details: 0,05 Gewichts% compound in 75 ml hard water (DIN 51360), copper strip 24 h at 60°C; single determination
Method: 0,05 Gewichts% der zu testenden Verbindung werden in 75 ml hartem Wasser (DIN 51360) gelöst. Ein mit Siliciumcarbid poliertes und gewogenes Kupferblech (50 x 20 x 0,2 mm) wird vollständig in die Lösung getaucht und gut verschlossen 24 Stunden bei 60°C gelagert. Dann wird das Blech entnommen, 15 sec in 5 N Salzsäurelösung getaucht und mit deionisertem Wasser und Aceton gespült. Nach dem Trocknen wird das Kupferblech wieder gewogen.
Der Gewichtsverlust dient der Beurteilung des Korrosionsschutzes. Hoher Gewichtsverlust bedeutet starke Korrosion, geringer Gewichtsverlust guten Korrosionschutz.

| Structure (SMILES) | Gewichtsverlust |
| --- | --- |
| CC(Nc1nc(NC(C)n2cncn2)nc(NC(C)n2cncn2)n1)n1cncn1 (centres unmarked) [Beispiel 19] | 1,4 mg |
| O=C(O)C(Nc1nc(NC(C(=O)O)n2cncn2)nc(NC(C(=O)O)n2cncn2)n1)n1cncn1 (centres unmarked) [Beispiel 25] | 1,0 mg |
